# Screen size: about 320,000 compounds; about 22,000 (6.9%) were called active. This list was built around the results that the source calls inconclusive (neither active nor inactive); the mix of calls is not that of the screen. Calls follow the shape of the dose curve; as a rule, active = well fitted inhibition curve with a large enough effect; inconclusive = small, poorly fitted or top-dose-only effect, or another doubt; inactive = no such curve, though single readings can be large or run the other way. Potencies of inconclusive entries are doubtful fits and often do not repeat.
# Assay: Primary qHTS for delayed death inhibitors of the malarial parasite plastid, 96 hour incubation
# Conditions: P. falciparum luciferase reporter growth; series mostly up to 28.7 µM
# Outline: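 Plates of compound plus infected erythrocytes (2% hematocrit, 0.05% parasitemia final) incubate 96 hours, 37 C, 5% CO2. Detection reagent added; reduced luminescence from the parasites' luciferase reporter flags inhibition.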
# Potency is read from the fitted curve at half-maximal effect.
row,SMILES,Potency
1,O=c1c(F)cn(C2CCCO2)c(=O)n1Cc1c(Cl)cccc1Cl (configuration not stated),active: 13.1 µM
2,COc1cc(C(=O)N2CCN(c3ccc([N+](=O)[O-])cc3)CC2)ccc1OCc1c(C)noc1C,"inconclusive: 1.17 µM [inhibitor, partial curve, poor fit]"
3,CC(C)(C)n1nc2c(c1NC(=O)c1ccc(Cl)c([N+](=O)[O-])c1)CS(=O)(=O)C2,"inconclusive: 4.15 µM [inhibitor, partial curve]"
4,CN(CC1CCCN(CCc2cccc(C(F)(F)F)c2)C1)C(=O)c1ccco1 (configuration not stated),inactive
5,N#Cc1c(NC(=O)/C=C/C(=O)O)sc2c1CCN(Cc1ccccc1)C2,active: 10.4 µM
6,CCC(=O)c1ccc(N2CCN(C(=O)Cc3ccccc3)CC2)c(F)c1,"inconclusive: 1.65 µM [inhibitor, partial curve]"
7,Cc1cc(=O)n2c(C(=O)Nc3ccc(C(=O)OC(C)C)cc3)c(C(=O)Nc3ccccc3)sc2n1,"inconclusive: 8.28 µM [inhibitor, partial curve, poor fit]"
8,CCSc1nnc(-c2ccc(S(=O)(=O)N3CCOCC3)cc2)n1C,"inconclusive: 6.57 µM [inhibitor, partial curve]"
9,CCS(=O)(=O)NC(C)C(c1cccs1)N1CCN(c2ccc(F)cc2)CC1 (configuration not stated),inactive
10,Cc1ccccc1CSc1nn2c(=O)c(C)nnc2s1,"inconclusive: 0.0208 µM [inhibitor, full curve, poor fit]"
11,N/C(=N\NC(=O)c1ccccc1)c1cc2ccccc2oc1=O,inactive
12,CN(Cc1cccc([N+](=O)[O-])c1)Cc1cccc2ccccc12,"inconclusive: 18.5 µM [inhibitor, single point]"
13,CCn1cc2nc(SCC(=O)Nc3ccc(OC)c(OC)c3)n(Cc3ccc(OC)cc3)c(=O)c2n1,"inconclusive: 1.04 µM [inhibitor, partial curve, poor fit]"
14,COc1cccc(C(=O)Nc2nnc(-c3cccs3)s2)c1,"inconclusive: 13.1 µM [inhibitor, single point]"
15,COc1cc(CN2CCN(Cc3ccco3)CC2)cc(OC)c1,active: 2.08 µM
16,Cc1ccc(OCC(=O)N2CCN(S(=O)(=O)c3ccc4c(c3)OCCO4)CC2)c(C)c1,"inconclusive: 11.7 µM [inhibitor, single point]"
17,COc1cccc(Nc2ncnc3c2cnn3-c2cccc(C)c2)c1,inactive
18,c1ccc(OCCSc2nnnn2-c2ccccc2)cc1,inactive
19,Cc1ccc(NC(=O)C2CC2c2ccccc2)cc1 (configuration not stated),"inconclusive: 18.5 µM [inhibitor, single point]"
20,COC(=O)c1ccc(N=NNc2cccc(Br)c2)cc1,"inconclusive: 1.17 µM [inhibitor, partial curve, poor fit]"
21,CCC(C)c1ccccc1N1CC(C(=O)N2CCN(S(=O)(=O)c3ccccc3Br)CC2)CC1=O (configuration not stated),active: 11.7 µM
22,Cc1ccc(NC(=O)c2cnccn2)c(OC(F)F)c1,"inconclusive: 5.22 µM [inhibitor, partial curve]"
23,COc1cc(C(=O)NC(=S)NCc2ccco2)cc(OC)c1OC,inactive

row,SMILES,Potency
1,Cc1ccc2c(c1)c(N=Nc1cccc(C(=O)O)c1)c(O)n2C,"inconclusive: 2.62 µM [inhibitor, full curve, poor fit]"
2,c1ccc(-c2cc(-c3nc4ccccc4[nH]3)c3ccccc3n2)cc1,"inconclusive: 18.5 µM [inhibitor, single point]"
3,O=c1cnc2ccccc2n1Cc1ccccc1C(F)(F)F,inactive
4,COCCN(C(=O)c1ccccc1)c1nnc(-c2cccnc2)s1,"inconclusive: 0.0586 µM [inhibitor, full curve, poor fit]"
5,Cc1ccc(C(=O)c2c(NC(=O)c3ccncc3)sc3c2CCCC3)cc1,"inconclusive: 18.5 µM [inhibitor, single point]"
6,c1ccc2c(c1)CCN(Cc1nnnn1Cc1ccc3c(c1)OCO3)C2,inactive
7,COc1ccc(S(=O)(=O)N2CCOCC2)cc1NC(=O)c1ccccc1-c1ccc(C(F)(F)F)cc1,"inconclusive: 2.08 µM [inhibitor, full curve, poor fit]"
8,CCc1ccc(NC(=O)c2noc3c2CCCCC3)cc1,active: 3.7 µM
9,COC1CC(OC2CCC3(C)C(CCC4C3CCC3(C)C(C5=CC(=O)OC5)C(OC(C)=O)CC43O)C2)OC(C)C1OC1OC(COC2OC(CO)C(O)C(O)C2O)C(O)C(O)C1O (configuration not stated),inactive
10,C=CCNC(=O)NC(=O)COC(=O)C(C)Oc1ccc(Cl)cc1Cl (configuration not stated),"inconclusive: 18.5 µM [inhibitor, single point]"
11,O=C(Nc1cccc(NC(=O)c2ccc(-c3ccc(Br)cc3)o2)c1)c1ccco1,"inconclusive: 10.4 µM [inhibitor, single point]"
12,O=C(Nc1cccc(S(=O)(=O)N2CCOCC2)c1)c1ccc(N2CCCC2=O)cc1,"inconclusive: 0.522 µM [inhibitor, partial curve, poor fit]"
13,C=CCOc1ccc(CN(C)C(=O)CNC(=O)c2ccc(-c3ccccc3)cc2)cc1,inactive
14,COCCNC(=O)/C(C#N)=C/c1cccc(/C=C(\C#N)C(=O)NCCOC)c1,"inconclusive: 16.5 µM [inhibitor, single point]"
15,Cc1ccc(C)c(NC(=O)CN(C)C(=O)c2sccc2C)c1,inactive
16,CCN1C(=O)[C@H]2[C@@H](c3ccc(-c4ccccc4)cc3)N3CCCC[C@@]3(C(=O)OC)[C@H]2C1=O,"inconclusive: 10.4 µM [inhibitor, single point]"
17,O=C(Nn1cnc2ccccc2c1=O)c1ccc(Br)cc1,"inconclusive: 0.465 µM [inhibitor, partial curve]"
18,Cc1cccc(N(NC(=O)C(C)(C)O)C(=O)c2ccccc2)c1,"inconclusive: 0.465 µM [inhibitor, full curve]"
19,COc1cccc(CN2CCNC(=O)C2CC(=O)NCC(C)(C)N2CCOCC2)c1OC (configuration not stated),active: 10.4 µM
20,NC(=O)c1ccc(NC(=O)COC(=O)CNC(=O)c2sc3ccccc3c2Cl)cc1,"inconclusive: 20.8 µM [inhibitor, partial curve, poor fit]"
21,COc1ccc(-n2c(Cc3cccn3C)nnc2SCC(=O)Nc2cccc(F)c2)cc1,"inconclusive: 18.5 µM [inhibitor, single point]"
22,C/C(=N\NC(=O)c1c[nH]c2ccccc12)c1ccccn1,"inconclusive: 1.85 µM [inhibitor, partial curve, poor fit]"
23,CN(C(=O)CSc1nc(N)nn1-c1ccccc1)c1ccccc1,"inconclusive: 18.5 µM [inhibitor, single point]"

# Given bar-delimited: part of the list above
row | SMILES | Potency
1 | Cc1ccc2c(c1)c(N=Nc1cccc(C(=O)O)c1)c(O)n2C | inconclusive: 2.62 µM [inhibitor, full curve, poor fit]
2 | c1ccc(-c2cc(-c3nc4ccccc4[nH]3)c3ccccc3n2)cc1 | inconclusive: 18.5 µM [inhibitor, single point]
3 | O=c1cnc2ccccc2n1Cc1ccccc1C(F)(F)F | inactive
4 | COCCN(C(=O)c1ccccc1)c1nnc(-c2cccnc2)s1 | inconclusive: 0.0586 µM [inhibitor, full curve, poor fit]
5 | Cc1ccc(C(=O)c2c(NC(=O)c3ccncc3)sc3c2CCCC3)cc1 | inconclusive: 18.5 µM [inhibitor, single point]

# Further records follow:

row,SMILES,Potency
1,CCOc1ccccc1-n1nnnc1SCC(=O)NCC1(N2CCOCC2)CCCCC1,"inconclusive: 8.28 µM [inhibitor, partial curve, poor fit]"
2,CCCCn1c(CCC)nc([N+](=O)[O-])c1Sc1ccc(Cl)cn1,active: 14.7 µM
3,CCCCn1c(N)c(N(C)C(=O)c2cn(-c3ccccc3)nc2-c2ccccc2)c(=O)[nH]c1=O,"inconclusive: 9.28 µM [inhibitor, single point]"
4,C=C1C(=O)O[C@H]2C[C@]3(C)C([C@@H](OC(=O)/C(C)=C/C)[C@H]12)[C@](C)(O)CC[C@H]3O (some centres not stated),inactive
5,CNC(=O)Nc1ccccc1F,inactive
6,COc1ccccc1C(=O)NCC(=O)OCC(=O)N1CC(C)OC(C)C1 (configuration not stated),inactive
7,Nc1ccc(-c2nc3cc(N)ccc3s2)cc1,"inconclusive: 0.522 µM [inhibitor, full curve, poor fit]"
8,CC[n+]1ccc(C)c2cc(S(=O)C(F)(F)F)ccc21 (configuration not stated),"inconclusive: 18.5 µM [inhibitor, single point]"
9,COc1ccc(-n2ncc3c2CC(C)(C)CC3NC(=O)CCn2nc(C)cc2C)cc1 (configuration not stated),"inconclusive: 10.4 µM [inhibitor, partial curve, poor fit]"
10,O=C(N/N=C/c1ccccc1O)c1cccc(C(F)(F)F)c1,"inconclusive: 18.5 µM [inhibitor, single point]"
11,Cc1cc(C(=O)CSc2nnc(-c3ccccc3)o2)c(C)n1CC1COc2ccccc2O1 (configuration not stated),active: 3.29 µM
12,CCCCn1c(N)c(N(CC(C)C)C(=O)CSc2ccccc2C)c(=O)[nH]c1=O,"inconclusive: 9.28 µM [inhibitor, partial curve, poor fit]"
13,CCCOC(=O)c1ccc(-n2nnnc2SCC(=O)N2CCCCC2)cc1,"inconclusive: 0.465 µM [inhibitor, partial curve, poor fit]"
14,O=C(CSc1ncnc2ccccc12)Nc1cccc(S(=O)(=O)N2CCOCC2)c1,"inconclusive: 18.5 µM [inhibitor, single point]"
15,CC(C)(C)OC(=O)[C@H](NC(=O)OCc1ccccc1)c1ccccc1,"inconclusive: 4.65 µM [inhibitor, single point]"
16,N=C1C(c2ccccc2)=C(O)CN1NC(=O)c1ccc(Cl)cc1,"inconclusive: 3.29 µM [inhibitor, partial curve, poor fit]"
17,CCCN1CCN(C(=O)C2CCN(S(=O)(=O)c3ccc4c(c3)NC(=O)C(C)S4)CC2)CC1 (configuration not stated),"inconclusive: 18.5 µM [inhibitor, single point]"
18,CN1C(=S)SC(/[N+]([O-])=C\c2ccccc2)C1(C)C (configuration not stated),inactive
19,CN1CCN(S(=O)(=O)c2cccc(C(=O)Nc3cc(C(F)(F)F)ccc3N3CCCC3)c2)CC1,"inconclusive: 10.4 µM [inhibitor, single point]"
20,CCOC(=O)C1=C(C)N(c2ccccc2)C(=O)C1CC(=O)O (configuration not stated),active: 11.7 µM
21,COc1cc(C(=S)N2CCOCC2)ccc1OS(=O)(=O)c1ccccc1[N+](=O)[O-],inactive

# Reference: PubChem BioAssay AID504834 (National Center for Advancing Translational Sciences (NCATS), 2011)
